Assay results: the supplement of paper PMC12067093, “Discovery and optimisation of a covalent ligand for TRIM25 and its application to targeted protein ubiquitination” (Chemical Science, 2025)
This is one part of the list.

Protein sequences, listed by entry. Tags and fused reporters are not part of them. Lines headed by an entry give the natural chain unless they say otherwise; changes in a name come on top.
UniProt Q92616, whole entry, looked up: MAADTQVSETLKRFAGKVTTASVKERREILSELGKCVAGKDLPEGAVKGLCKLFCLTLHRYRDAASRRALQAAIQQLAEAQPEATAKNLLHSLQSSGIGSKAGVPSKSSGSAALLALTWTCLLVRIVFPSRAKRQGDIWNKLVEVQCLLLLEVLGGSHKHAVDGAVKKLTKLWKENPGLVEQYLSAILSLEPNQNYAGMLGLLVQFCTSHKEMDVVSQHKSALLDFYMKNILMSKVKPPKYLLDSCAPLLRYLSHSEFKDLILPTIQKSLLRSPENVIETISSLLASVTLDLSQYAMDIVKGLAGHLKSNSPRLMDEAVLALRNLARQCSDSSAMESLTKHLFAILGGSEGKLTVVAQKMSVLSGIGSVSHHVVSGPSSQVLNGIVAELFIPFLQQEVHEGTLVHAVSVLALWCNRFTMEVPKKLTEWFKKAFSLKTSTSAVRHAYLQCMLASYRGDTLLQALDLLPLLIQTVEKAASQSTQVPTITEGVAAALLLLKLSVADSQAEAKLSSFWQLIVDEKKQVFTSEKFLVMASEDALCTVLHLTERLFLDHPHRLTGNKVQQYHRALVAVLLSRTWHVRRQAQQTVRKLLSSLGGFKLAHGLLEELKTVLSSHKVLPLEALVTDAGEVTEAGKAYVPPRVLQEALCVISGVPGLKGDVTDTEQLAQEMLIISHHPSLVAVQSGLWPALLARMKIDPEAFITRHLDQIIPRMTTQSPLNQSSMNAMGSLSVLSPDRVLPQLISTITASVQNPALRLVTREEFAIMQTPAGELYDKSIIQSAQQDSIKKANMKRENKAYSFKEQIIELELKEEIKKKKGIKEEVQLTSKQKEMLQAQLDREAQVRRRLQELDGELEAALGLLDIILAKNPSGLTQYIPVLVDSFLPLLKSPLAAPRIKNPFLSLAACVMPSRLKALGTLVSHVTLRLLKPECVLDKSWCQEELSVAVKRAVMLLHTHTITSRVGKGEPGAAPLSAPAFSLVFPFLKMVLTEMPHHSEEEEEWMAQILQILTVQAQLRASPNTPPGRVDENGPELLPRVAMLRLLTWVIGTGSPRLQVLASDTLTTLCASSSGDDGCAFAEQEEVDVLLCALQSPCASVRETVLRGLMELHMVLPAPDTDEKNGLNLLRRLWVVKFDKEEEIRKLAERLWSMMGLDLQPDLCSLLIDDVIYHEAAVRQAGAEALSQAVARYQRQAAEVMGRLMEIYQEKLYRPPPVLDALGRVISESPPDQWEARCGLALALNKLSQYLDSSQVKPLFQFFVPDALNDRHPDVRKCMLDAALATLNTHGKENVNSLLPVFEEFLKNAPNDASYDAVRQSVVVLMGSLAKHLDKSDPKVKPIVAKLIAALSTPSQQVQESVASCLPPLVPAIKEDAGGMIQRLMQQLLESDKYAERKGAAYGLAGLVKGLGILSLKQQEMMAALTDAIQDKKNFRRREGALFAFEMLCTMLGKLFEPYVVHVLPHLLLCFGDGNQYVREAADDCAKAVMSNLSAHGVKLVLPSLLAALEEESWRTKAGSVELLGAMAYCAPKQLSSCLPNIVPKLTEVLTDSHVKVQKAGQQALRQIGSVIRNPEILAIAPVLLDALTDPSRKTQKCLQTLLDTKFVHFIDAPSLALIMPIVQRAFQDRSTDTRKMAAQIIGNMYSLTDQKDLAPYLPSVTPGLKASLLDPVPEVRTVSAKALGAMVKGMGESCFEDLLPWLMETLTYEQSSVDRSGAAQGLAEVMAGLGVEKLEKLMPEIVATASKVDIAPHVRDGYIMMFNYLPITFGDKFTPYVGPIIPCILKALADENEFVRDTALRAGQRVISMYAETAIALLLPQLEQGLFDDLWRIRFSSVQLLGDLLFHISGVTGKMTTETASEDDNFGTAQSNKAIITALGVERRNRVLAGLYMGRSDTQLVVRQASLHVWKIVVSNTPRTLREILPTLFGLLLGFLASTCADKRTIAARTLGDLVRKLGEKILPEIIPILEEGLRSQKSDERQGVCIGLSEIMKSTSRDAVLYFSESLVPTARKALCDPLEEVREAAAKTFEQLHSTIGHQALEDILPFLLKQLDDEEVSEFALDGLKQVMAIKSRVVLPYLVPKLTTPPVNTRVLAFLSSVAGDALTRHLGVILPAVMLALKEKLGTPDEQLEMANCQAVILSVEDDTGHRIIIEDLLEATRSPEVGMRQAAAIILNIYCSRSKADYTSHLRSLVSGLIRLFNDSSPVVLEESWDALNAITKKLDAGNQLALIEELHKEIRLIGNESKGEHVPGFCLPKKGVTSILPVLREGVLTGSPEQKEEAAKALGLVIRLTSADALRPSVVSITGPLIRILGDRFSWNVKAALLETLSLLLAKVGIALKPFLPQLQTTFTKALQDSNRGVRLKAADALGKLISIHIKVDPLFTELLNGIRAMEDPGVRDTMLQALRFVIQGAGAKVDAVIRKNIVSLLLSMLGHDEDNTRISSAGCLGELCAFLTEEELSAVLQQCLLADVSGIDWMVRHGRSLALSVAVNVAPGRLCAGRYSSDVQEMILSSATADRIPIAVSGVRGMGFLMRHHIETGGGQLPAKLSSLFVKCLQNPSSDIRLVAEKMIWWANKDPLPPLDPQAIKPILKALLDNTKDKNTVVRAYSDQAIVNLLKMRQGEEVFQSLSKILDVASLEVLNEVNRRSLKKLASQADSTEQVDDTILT
UniProt Q86YP4: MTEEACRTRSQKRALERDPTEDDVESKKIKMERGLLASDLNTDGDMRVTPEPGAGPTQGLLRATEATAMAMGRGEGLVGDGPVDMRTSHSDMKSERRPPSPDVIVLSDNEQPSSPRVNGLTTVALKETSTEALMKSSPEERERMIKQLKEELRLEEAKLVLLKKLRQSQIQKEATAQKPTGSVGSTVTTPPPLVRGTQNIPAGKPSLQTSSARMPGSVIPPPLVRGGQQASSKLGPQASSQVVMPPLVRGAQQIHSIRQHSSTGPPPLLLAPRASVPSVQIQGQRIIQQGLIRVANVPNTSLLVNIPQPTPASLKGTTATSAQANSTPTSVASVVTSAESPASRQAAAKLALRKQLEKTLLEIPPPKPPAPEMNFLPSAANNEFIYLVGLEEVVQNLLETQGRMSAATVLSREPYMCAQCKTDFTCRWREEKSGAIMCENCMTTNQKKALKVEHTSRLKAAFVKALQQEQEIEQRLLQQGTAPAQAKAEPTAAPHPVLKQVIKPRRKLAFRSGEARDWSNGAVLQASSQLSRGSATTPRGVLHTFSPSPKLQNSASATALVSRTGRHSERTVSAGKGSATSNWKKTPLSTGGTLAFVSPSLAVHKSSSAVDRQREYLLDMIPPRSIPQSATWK
UniProt Q96CN9: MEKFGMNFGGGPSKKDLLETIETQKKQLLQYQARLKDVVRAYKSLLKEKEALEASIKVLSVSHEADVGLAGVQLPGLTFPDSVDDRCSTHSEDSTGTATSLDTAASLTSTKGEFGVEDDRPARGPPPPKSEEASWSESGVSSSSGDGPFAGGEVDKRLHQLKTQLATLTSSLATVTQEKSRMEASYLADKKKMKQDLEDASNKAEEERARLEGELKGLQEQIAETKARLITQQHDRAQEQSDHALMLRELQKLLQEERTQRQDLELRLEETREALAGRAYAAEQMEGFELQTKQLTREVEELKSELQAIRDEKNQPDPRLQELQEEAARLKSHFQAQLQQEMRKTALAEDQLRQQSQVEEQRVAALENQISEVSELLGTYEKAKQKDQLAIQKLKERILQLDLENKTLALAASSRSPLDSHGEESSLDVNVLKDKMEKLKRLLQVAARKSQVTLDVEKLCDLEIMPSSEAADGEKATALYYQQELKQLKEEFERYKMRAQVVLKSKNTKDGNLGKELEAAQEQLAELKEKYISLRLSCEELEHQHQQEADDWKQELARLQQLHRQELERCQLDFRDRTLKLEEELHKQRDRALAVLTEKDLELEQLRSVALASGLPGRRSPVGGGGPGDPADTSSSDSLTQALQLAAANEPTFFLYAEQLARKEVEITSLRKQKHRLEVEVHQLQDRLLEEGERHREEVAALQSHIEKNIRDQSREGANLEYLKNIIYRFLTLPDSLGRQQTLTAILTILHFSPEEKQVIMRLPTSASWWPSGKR
UniProt O75223: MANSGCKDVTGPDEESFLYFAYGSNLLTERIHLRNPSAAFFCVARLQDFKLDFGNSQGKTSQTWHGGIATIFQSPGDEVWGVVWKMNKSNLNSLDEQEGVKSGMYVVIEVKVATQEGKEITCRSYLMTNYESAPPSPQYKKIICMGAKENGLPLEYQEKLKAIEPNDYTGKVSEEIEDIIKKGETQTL
UniProt Q8NCL4: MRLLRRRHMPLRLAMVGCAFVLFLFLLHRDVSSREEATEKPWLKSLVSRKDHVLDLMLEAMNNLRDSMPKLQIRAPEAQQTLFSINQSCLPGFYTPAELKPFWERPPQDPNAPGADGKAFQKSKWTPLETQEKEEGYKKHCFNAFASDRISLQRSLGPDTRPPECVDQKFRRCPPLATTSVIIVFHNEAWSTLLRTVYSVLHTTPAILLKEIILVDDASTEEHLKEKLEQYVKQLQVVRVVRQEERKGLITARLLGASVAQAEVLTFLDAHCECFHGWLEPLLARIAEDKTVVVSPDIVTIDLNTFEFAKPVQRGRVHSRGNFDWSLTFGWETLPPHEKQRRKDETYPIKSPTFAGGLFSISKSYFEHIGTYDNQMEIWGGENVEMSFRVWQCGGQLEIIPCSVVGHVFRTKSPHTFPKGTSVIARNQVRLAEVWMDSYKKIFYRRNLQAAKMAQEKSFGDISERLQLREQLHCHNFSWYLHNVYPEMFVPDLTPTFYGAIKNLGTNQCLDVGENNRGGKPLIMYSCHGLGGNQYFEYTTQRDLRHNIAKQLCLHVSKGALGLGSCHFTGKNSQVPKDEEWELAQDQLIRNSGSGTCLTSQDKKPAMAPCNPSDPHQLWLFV
UniProt Q8IWJ2: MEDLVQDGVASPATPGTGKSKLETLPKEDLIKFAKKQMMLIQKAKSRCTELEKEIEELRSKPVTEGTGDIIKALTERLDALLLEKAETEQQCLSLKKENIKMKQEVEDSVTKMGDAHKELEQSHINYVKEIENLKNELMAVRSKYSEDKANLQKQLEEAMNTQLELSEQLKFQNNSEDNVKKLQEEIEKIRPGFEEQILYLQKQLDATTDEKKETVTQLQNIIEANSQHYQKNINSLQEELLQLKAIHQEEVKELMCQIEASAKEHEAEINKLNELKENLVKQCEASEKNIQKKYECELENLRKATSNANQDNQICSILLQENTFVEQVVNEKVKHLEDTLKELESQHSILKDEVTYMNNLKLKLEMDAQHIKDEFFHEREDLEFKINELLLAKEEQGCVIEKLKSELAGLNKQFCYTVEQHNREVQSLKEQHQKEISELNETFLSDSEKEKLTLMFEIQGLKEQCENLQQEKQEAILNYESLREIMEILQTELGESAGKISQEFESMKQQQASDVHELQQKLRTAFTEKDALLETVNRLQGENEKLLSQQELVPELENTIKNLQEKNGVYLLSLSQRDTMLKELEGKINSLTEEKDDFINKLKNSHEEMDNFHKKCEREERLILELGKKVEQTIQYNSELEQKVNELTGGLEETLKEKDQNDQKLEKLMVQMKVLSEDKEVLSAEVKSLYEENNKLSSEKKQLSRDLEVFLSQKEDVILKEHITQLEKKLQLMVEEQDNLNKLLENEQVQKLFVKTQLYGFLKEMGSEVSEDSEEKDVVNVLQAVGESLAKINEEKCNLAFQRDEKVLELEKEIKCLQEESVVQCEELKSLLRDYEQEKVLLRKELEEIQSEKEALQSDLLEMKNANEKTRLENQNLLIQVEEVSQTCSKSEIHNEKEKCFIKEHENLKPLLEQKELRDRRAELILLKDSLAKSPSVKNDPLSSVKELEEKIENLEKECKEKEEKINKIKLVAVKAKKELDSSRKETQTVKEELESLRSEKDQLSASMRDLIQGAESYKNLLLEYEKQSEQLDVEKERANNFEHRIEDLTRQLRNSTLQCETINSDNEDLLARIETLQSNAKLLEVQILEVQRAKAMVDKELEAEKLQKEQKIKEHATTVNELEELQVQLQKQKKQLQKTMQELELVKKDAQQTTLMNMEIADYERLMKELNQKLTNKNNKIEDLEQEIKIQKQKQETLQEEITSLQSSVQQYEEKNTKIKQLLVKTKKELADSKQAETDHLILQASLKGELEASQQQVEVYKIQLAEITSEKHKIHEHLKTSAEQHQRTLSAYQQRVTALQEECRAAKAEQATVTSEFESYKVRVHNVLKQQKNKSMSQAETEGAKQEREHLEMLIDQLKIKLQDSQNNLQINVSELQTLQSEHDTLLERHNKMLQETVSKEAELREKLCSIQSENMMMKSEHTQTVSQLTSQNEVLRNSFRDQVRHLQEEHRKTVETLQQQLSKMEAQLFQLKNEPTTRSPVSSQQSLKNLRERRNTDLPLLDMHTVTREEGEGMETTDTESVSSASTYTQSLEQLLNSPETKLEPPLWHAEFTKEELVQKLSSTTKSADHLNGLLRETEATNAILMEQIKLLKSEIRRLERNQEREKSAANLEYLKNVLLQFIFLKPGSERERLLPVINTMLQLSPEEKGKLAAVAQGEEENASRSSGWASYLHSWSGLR

Compound: Cc1cc(ccc1-c1ccccc1)C(=O)N1CCCN(CC1)C(=O)CCl [compound 10]
Test: probe-labelled cysteine peptide fold change vs DMSO (competition) (log2 fold change); higher = less target engagement (more negative = stronger competition)
Settings: THP-1, incubation time: 4 h
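Note: competitive profiling in live THP-1 cells: cysteine peptides tagged with an iodoacetamide desthiobiotin (IA-DTB) probe, intensity after compound treatment relative to DMSO-treated cells.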

GCN1_Q92616_55_LFCLTLHR (UniProt Q92616)
probe-labelled cysteine peptide fold change (10 µM): -0.238
probe-labelled cysteine peptide fold change (50 µM): -0.244

GBF1_Q92538_1707_IDCFLPHLR (UniProt Q92538)
probe-labelled cysteine peptide fold change (10 µM): 0.104
probe-labelled cysteine peptide fold change (50 µM): 0.244

GATAD2A_Q86YP4_6_TEEACR (UniProt Q86YP4)
probe-labelled cysteine peptide fold change (10 µM): -0.14
probe-labelled cysteine peptide fold change (50 µM): -0.13

GAMT_Q14353_91_VQEAPIDEHWIIECNDGVFQR (UniProt Q14353)
probe-labelled cysteine peptide fold change (10 µM): -0.0458
probe-labelled cysteine peptide fold change (50 µM): 0.00231

GARS_P41250_471_SCYDLSCHAR (UniProt P41250)
probe-labelled cysteine peptide fold change (10 µM): 0.113
probe-labelled cysteine peptide fold change (50 µM): -0.286

GALK2_Q01415_407_LTGAGWGGCTVSMVPADKLPSFLANVHK (UniProt Q01415)
probe-labelled cysteine peptide fold change (10 µM): -0.158
probe-labelled cysteine peptide fold change (50 µM): -0.59

GCC1_Q96CN9_538_LSCEELEHQHQQEADDWKQELAR (UniProt Q96CN9)
probe-labelled cysteine peptide fold change (10 µM): -0.0143
probe-labelled cysteine peptide fold change (50 µM): -0.0459

GCN1_Q92616_907_NPFLSLAACVMPSR (UniProt Q92616)
probe-labelled cysteine peptide fold change (10 µM): -0.19
probe-labelled cysteine peptide fold change (50 µM): 0.292

GAPVD1_Q14C86_70+71_LIITSAEASPAECCQHAK (UniProt Q14C86)
probe-labelled cysteine peptide fold change (10 µM): -0.395
probe-labelled cysteine peptide fold change (50 µM): -0.988

GGCT_O75223_144_IICMGAK (UniProt O75223)
probe-labelled cysteine peptide fold change (10 µM): -0.089
probe-labelled cysteine peptide fold change (50 µM): -0.0656

GALNT6_Q8NCL4_509_NLGTNQCLDVGENNR (UniProt Q8NCL4)
probe-labelled cysteine peptide fold change (10 µM): 0.135
probe-labelled cysteine peptide fold change (50 µM): 0.262

GCC2_Q8IWJ2_92_AETEQQCLSLKK (UniProt Q8IWJ2)
probe-labelled cysteine peptide fold change (10 µM): 0.179
probe-labelled cysteine peptide fold change (50 µM): -0.122

GCLC_P48506_615_CNQIANELCECPELLGSAFR (UniProt P48506)
probe-labelled cysteine peptide fold change (10 µM): -0.061
probe-labelled cysteine peptide fold change (50 µM): 0.0454

GCC2_Q8IWJ2_466_EQCENLQQEK (UniProt Q8IWJ2)
probe-labelled cysteine peptide fold change (10 µM): 0.214
probe-labelled cysteine peptide fold change (50 µM): 0.205

GDI2_P50395_335_SDIYVCMISFAHNVAAQGK (UniProt P50395)
probe-labelled cysteine peptide fold change (10 µM): -0.0231
probe-labelled cysteine peptide fold change (50 µM): 0.3
